According to PubChem BioAssay AID260 (DTP/NCI, 2004):
The list does not hold the whole screen: it is rich in T/C values a quarter to a half above the control, in often repeated tests (any T/C) and in doses without a T/C. Further doses and runs are listed elsewhere. T/C: endpoint of the treated group in % of that of the vehicle group. Some entries give survivors of the animals treated and no T/C: the source holds a T/C of zero for them, seemingly a mark for toxic or unscored doses. Some survivor counts are full or nearly so, which does not show that the dose was tolerated: the source hardly ever lists a survival T/C far under the control, and the zero likely stands for such cases as well. Counts of survivors are from the toxicity check (mostly the fifth day) where no day follows; animals may have died later. Schedules are NCI's codes, read here as Q, the interval in days (D) or hours (H), X, the number of doses. Some entries were tested several times; the results are listed from low to high. Where survival is the endpoint, this PubChem deposit counts one and a half times the control or more as active, and values a quarter to a half above the control carry no call in these data; other NCI protocols may use other cut-offs. Some T/C values carry the count of animals alive at the toxicity check (mostly the fifth day); without a count, all were alive then. Some structures stand for samples that the source files as different forms (salt, stereo form or complex); doses refer to the form tested.

Tested on: CD2F1 mice, intracerebral L1210 leukemia, survival T/C
Assay: NCI In Vivo Anticancer Drug Screen. Data for tumor model L1210 Leukemia (intracerebral) in CD2F1 (CDF1) mice
Conditions: higher T/C = longer survival
Procedure: The antitumor activity of compounds was measured in mice bearing transplantable tumors. Survival or tumor size were measured and the results are expressed as the measurement made in the treated group (T) divided by the measurement made in the vehicle treated control group (C). The tumor model used in this assay is L1210 Leukemia (intracerebral) in CD2F1 (CDF1) mice

[1] = T/C endpoint: median survival time, dose: 160.0 mg/kg/injection, schedule: Q01DX001 (ip), vehicle: saline
[2] = T/C endpoint: median survival time, dose: 320.0 mg/kg/injection, schedule: Q01DX001 (ip), vehicle: saline
[3] = T/C endpoint: median survival time, dose: 3.0 mg/kg/injection, schedule: Q01DX009 (ip), vehicle: saline
[4] = T/C endpoint: median survival time, dose: 512.0 mg/kg/injection, schedule: Q01DX005 (ip), vehicle: saline with Tween-80

O=NN(CCCl)C(=O)NCCCl
T/C (T/C endpoint: mean survival time, dose: 10.0 mg/kg/injection, schedule: Q01DX001 (ip), vehicle: saline): 143 % of control
T/C (T/C endpoint: median survival time, dose: 5.0 mg/kg/injection, schedule: Q01DX001 (ip), vehicle: distilled water + alcohol): 126 % of control
T/C (T/C endpoint: median survival time, dose: 6.2 mg/kg/injection, schedule: Q01DX001 (ip), vehicle: DMSO): 142 % of control
T/C (T/C endpoint: median survival time, dose: 7.5 mg/kg/injection, schedule: Q01DX001 (ip), vehicle: saline + alcohol): 125 % of control
T/C (T/C endpoint: median survival time, dose: 10.0 mg/kg/injection, schedule: Q01DX001 (ip), vehicle: distilled water + alcohol): 146 % of control
T/C (T/C endpoint: median survival time, dose: 15.0 mg/kg/injection, schedule: Q01DX001 (ip), vehicle: saline + alcohol): 125 % of control
T/C (T/C endpoint: median survival time, dose: 32.0 mg/kg/injection, schedule: Q01DX001 (ip), vehicle: saline + alcohol, evaluated on day 5): 101 % of control
T/C (T/C endpoint: median survival time, dose: 32.0 mg/kg/injection, schedule: Q01DX001 (ip), vehicle: saline + alcohol, evaluated on day 30): 177, 333, 352 % of control
T/C (T/C endpoint: median survival time, dose: 50.0 mg/kg/injection, schedule: Q01DX001 (ip), vehicle: DMSO): 126 % of control [3 of 4 alive]
survivor count (T/C endpoint: median survival time, dose: 80.0 mg/kg/injection, schedule: Q01DX001 (ip), vehicle: distilled water + alcohol): 10 of 10
survivor count (T/C endpoint: median survival time, dose: 160.0 mg/kg/injection, schedule: Q01DX001 (ip), vehicle: distilled water + alcohol): 10 of 10
survivor count (T/C endpoint: median survival time, dose: 320.0 mg/kg/injection, schedule: Q01DX001 (ip), vehicle: distilled water + alcohol): 8 of 10

CN(N=O)C(N)=O
T/C (T/C endpoint: median survival time, dose: 8.0 mg/kg/injection, schedule: Q01DX009 (ip), vehicle: saline + alcohol): 141 % of control
T/C (T/C endpoint: median survival time, dose: 160.0 mg/kg/injection, schedule: Q01DX001 (ip), vehicle: saline + alcohol): 131 % of control
survivor count [1]: 7 of 10
survivor count [2]: 0 of 10

O=S1(=O)CS(=O)(=O)OCCO1
T/C (T/C endpoint: median survival time, dose: 6.25 mg/kg/injection, schedule: Q01DX009 (ip), vehicle: Klucel (hydroxypropylcellulose) (HPC)): 143 % of control

O=c1n(CC2CO2)c(=O)n(CC2CO2)c(=O)n1CC1CO1 (stereo not given)
T/C (T/C endpoint: median survival time, dose: 25.6 mg/kg/injection, schedule: Q01DX009 (ip), vehicle: saline): 128 % of control
T/C (T/C endpoint: median survival time, dose: 30.0 mg/kg/injection, schedule: Q01DX009 (ip), vehicle: saline): 135 % of control
T/C (T/C endpoint: median survival time, dose: 32.0 mg/kg/injection, schedule: Q01DX009 (ip), vehicle: saline): 145 % of control
T/C (T/C endpoint: median survival time, dose: 40.0 mg/kg/injection, schedule: Q01DX009 (ip), vehicle: saline): 132 % of control
T/C (T/C endpoint: median survival time, dose: 96.0 mg/kg/injection, schedule: Q01DX001 (ip), vehicle: saline): 126 % of control
survivor count (T/C endpoint: median survival time, dose: 120.0 mg/kg/injection, schedule: Q01DX001 (ip), vehicle: saline): 6 of 8
T/C (T/C endpoint: median survival time, dose: 120.0 mg/kg/injection, schedule: Q01DX009 (ip), vehicle: saline): 141 % of control
survivor count (T/C endpoint: median survival time, dose: 150.0 mg/kg/injection, schedule: Q01DX001 (ip), vehicle: saline): 1 of 8
T/C (T/C endpoint: median survival time, dose: 150.0 mg/kg/injection, schedule: Q01DX009 (ip), vehicle: saline): 139 % of control [9 of 10 alive]

N[C@@H](Cc1ccc(N(CCCl)CCCl)cc1)C(=O)O
T/C (T/C endpoint: mean survival time, dose: 5.0 mg/kg/injection, schedule: Q01DX009 (ip), vehicle: saline): 136 % of control
T/C (T/C endpoint: mean survival time, dose: 7.5 mg/kg/injection, schedule: Q01DX009 (ip), vehicle: saline): 142 % of control

C1CN(P2(N3CC3)=NP(N3CC3)(N3CC3)=NP(N3CC3)(N3CC3)=N2)CCO1 (stereo not given)
survivor count [1]: 9 of 10
survivor count [2]: 10 of 10

CCCCCCCCCCCCCCCCCC(=O)Nc1ccn(C2OC(CO)C(O)C2O)c(=O)n1 (stereo not given)
T/C (T/C endpoint: median survival time, dose: 12.5 mg/kg/injection, schedule: Q01DX009 (ip), vehicle: saline with Tween-80): 144 % of control

C[C@@H](CN1CC(=O)NC(=O)C1)N1CC(=O)NC(=O)C1
T/C (T/C endpoint: mean survival time, dose: 16.0 mg/kg/injection, schedule: Q01DX009 (ip), vehicle: water): 128 % of control
T/C (T/C endpoint: mean survival time, dose: 32.0 mg/kg/injection, schedule: Q01DX009 (ip), vehicle: water): 146 % of control
T/C (T/C endpoint: mean survival time, dose: 128.0 mg/kg/injection, schedule: Q01DX009 (ip), vehicle: water): 133 % of control

O=C1C(N2CC2)=C(N2CCCC(O)C2)C(=O)C(N2CC2)=C1N1CCCC(O)C1 (stereo not given)
T/C (T/C endpoint: mean survival time, dose: 6.0 mg/kg/injection, schedule: Q04DX003 (ip), vehicle: saline): 127 % of control
T/C (T/C endpoint: mean survival time, dose: 8.0 mg/kg/injection, schedule: Q04DX003 (ip), vehicle: saline): 130 % of control

CCCCCN(C)/N=N/c1nc[nH]c1C(N)=O
T/C (T/C endpoint: median survival time, dose: 64.0 mg/kg/injection, schedule: Q01DX005 (ip), vehicle: saline with Tween-80): 129 % of control
T/C (T/C endpoint: median survival time, dose: 128.0 mg/kg/injection, schedule: Q01DX005 (ip), vehicle: saline with Tween-80): 129 % of control

CCCN(C)C(=O)N(CCCl)N=O
T/C (T/C endpoint: median survival time, dose: 15.6 mg/kg/injection, schedule: Q01DX001 (ip), vehicle: saline + alcohol): 128 % of control
T/C (T/C endpoint: median survival time, dose: 31.3 mg/kg/injection, schedule: Q01DX001 (ip), vehicle: DMSO): 126 % of control
T/C (T/C endpoint: median survival time, dose: 62.5 mg/kg/injection, schedule: Q01DX001 (ip), vehicle: DMSO): 138 % of control
T/C (T/C endpoint: median survival time, dose: 125.0 mg/kg/injection, schedule: Q01DX001 (ip), vehicle: DMSO): 145 % of control

CN(C)N=Nc1ccc(C(=O)O)cc1
T/C (T/C endpoint: mean survival time, dose: 100.0 mg/kg/injection, schedule: Q01DX009 (ip), vehicle: saline): 147 % of control
T/C (T/C endpoint: mean survival time, dose: 120.0 mg/kg/injection, schedule: Q01DX007 (ip), vehicle: DMSO): 125 % of control

O=NN(CCCl)C(=O)NC1CCC(=O)NC1=O (stereo not given)
T/C (T/C endpoint: median survival time, dose: 4.0 mg/kg/injection, schedule: Q01DX001 (ip), vehicle: DMSO): 126 % of control
T/C (T/C endpoint: median survival time, dose: 4.0 mg/kg/injection, schedule: Q01DX001 (ip), vehicle: saline + alcohol): 129 % of control
T/C (T/C endpoint: median survival time, dose: 4.0 mg/kg/injection, schedule: Q01DX001 (oral), vehicle: saline + alcohol): 136 % of control
survivor count (T/C endpoint: median survival time, dose: 64.0 mg/kg/injection, schedule: Q01DX001 (ip), vehicle: DMSO): 3 of 4

CN(N=O)C(=O)Nc1c[nH]c(=O)[nH]c1=O
survivor count (T/C endpoint: median survival time, dose: 256.0 mg/kg/injection, schedule: Q01DX005 (ip), vehicle: saline with Tween-80): 0 of 6

COC(=O)NC1=C(N2CC2)C(=O)C(NC(=O)OC)=C(N2CC2)C1=O
T/C (T/C endpoint: median survival time, dose: 1.5 mg/kg/injection, schedule: Q01DX009 (ip), vehicle: saline): 134 and 138 % of control [9 of 10 alive]
T/C [3]: 130 % of control
survivor count [3]: 9 of 10
survivor count (T/C endpoint: median survival time, dose: 6.0 mg/kg/injection, schedule: Q01DX009 (ip), vehicle: saline): 2 of 10 and 8 of 10

CN(CCO)/N=N/c1nc[nH]c1C(N)=O
T/C [4]: 144 % of control

O=[N+]([O-])O.[Ga]
survivor count (T/C endpoint: median survival time, dose: 128.0 mg/kg/injection, schedule: Q01DX005 (ip), vehicle: saline): 6 of 10
survivor count (T/C endpoint: median survival time, dose: 256.0 mg/kg/injection, schedule: Q01DX005 (ip), vehicle: saline): 0 of 10 and 1 of 10

COc1ccc2c(c1)CCC(c1ccccc1)=C2c1ccc(OCCN2CCCC2)cc1
T/C (T/C endpoint: median survival time, dose: 48.0 mg/kg/injection, schedule: Q01DX005 (ip), vehicle: Klucel (hydroxypropylcellulose) (HPC)): 148 % of control [9 of 10 alive]
survivor count (T/C endpoint: median survival time, dose: 96.0 mg/kg/injection, schedule: Q01DX005 (ip), vehicle: Klucel (hydroxypropylcellulose) (HPC)): 10 of 10

CN(N=O)C(=O)N[C@@H](C=O)[C@@H](O)[C@H](O)[C@H](O)CO
survivor count (T/C endpoint: mean survival time, dose: 400.0 mg/kg/injection, schedule: Q01DX005 (ip), vehicle: saline): 5 of 6

COc1ccc(CC2C(=O)NC(C)C(=O)N(C)C3C(=O)N(C)C(Cc4ccc(O)c(c4)Oc4ccc(cc4)C3O)C(=O)NC(C)C(=O)NC(C)C(=O)N2C)cc1 (stereo not given)
survivor count (T/C endpoint: median survival time, dose: 0.12 mg/kg/injection, schedule: Q01DX009 (ip), vehicle: Klucel (hydroxypropylcellulose) (HPC)): 0 of 6

CCCCN(C)N=Nc1ccc([N+](=O)[O-])cc1C(N)=O
survivor count [4]: 6 of 6

CN(C)N=Nc1cccc(C(N)=O)c1
T/C (T/C endpoint: median survival time, dose: 40.0 mg/kg/injection, schedule: Q01DX005 (ip), vehicle: Klucel (hydroxypropylcellulose) (HPC)): 135 and 136 % of control
survivor count (T/C endpoint: median survival time, dose: 160.0 mg/kg/injection, schedule: Q01DX005 (ip), vehicle: Klucel (hydroxypropylcellulose) (HPC)): 3 of 6 and 4 of 6

S=P(N1CC1)(N1CC1)N1CC1
T/C (T/C endpoint: mean survival time, dose: 2.0 mg/kg/injection, schedule: Q01DX009 (ip), vehicle: saline): 138 % of control
T/C (T/C endpoint: mean survival time, dose: 8.0 mg/kg/injection, schedule: Q01DX009 (ip), vehicle: saline): 134 and 148 % of control
